According to patent US20190002562A1 (INTERVET, published 2019):

B1: can2H9 ADCC (1062) VH4/VL3 (antibody)
heavy: EVQLVQSGGDLVKPGGSVRLSCVASGFNIKNTYMHWVRQAPGKGLQWIGRIAPANVDTKYAPKFQGKATISADTAKNTAYMQLNSLRAEDTAVYYCVLIYYDYDGDIDVWGQGTLVTVSSASTTAPSVFPLAPSCGSTSGSTVALACLVSGYFPEPVTVSWNSGSLTSGVHTFPSVLQSSGLYSLSSMVTVPSSRWPSETFTCNVAHPASKTKVDKPVPKRENGRVPRPPDCPKCPAPEMLGGPSVFIFPPKPKDTLLIARTPEVTCVVVALDPEDPEVQISWFVDGKQMQTAKTQPREEQFAGTYRVVSVLPIGHQDWLKGKQFTCKVNNKALPSPIERTISKARGQAHQPSVYVLPPSREELSKNTVSLTCLIKDFFPPDIDVEWQSNGQQEPESKYRTTPPQLDEDGSYFLYSKLSVDKSRWQRGDTFICAVMHEALHNHYTQESLSHSPGK
light: DIVMTQTPLSLSVSLGEPASISCHASQNINVWLSWYRQKPGQIPQLLIYKASHLHTGVPDRFSGSGSGTDFTLRISRVEADDAGVYYCQQGQSWPLTFGQGTKVEIKRNDAQPAVYLFQPSPDQLHTGSASVVCLLNSFYPKDINVKWKVDGVIQDTGIQESVTEQDSKDSTYSLSSTLTMSSTEYLSHELYSCEITHKSLPSTLIKSFQRSECQRVD
notes: also called YZZ1062
B2: can 2H9 IgGB ADCC (1068) VH4/VL3 (antibody)
heavy: B1 heavy with P244A, A333G, P335A
light: B1 light
notes: also called can2H9 VH4 IgGB ADCC (1068)/VL3; YZZ1068
B3: can2H9 VH4/VL3 IgGB (antibody)
heavy: B1 heavy with A271D, A303N
light: B1 light
notes: also called 2H9 VH4 IgGB/VL3; caninized 2H9 with un-modified IgGB Fc
B4: can2H9 IgGD VH4/VL3 (antibody)
heavy chain: EVQLVQSGGDLVKPGGSVRLSCVASGFNIKNTYMHWVRQAPGKGLQWIGRIAPANVDTKYAPKFQGKATISADTAKNTAYMQLNSLRAEDTAVYYCVLIYYDYDGDIDVWGQGTLVTVSSASTTAPSVFPLAPSCGSTSGSTVALACLVSGYFPEPVTVSWNSGSLTSGVHTFPSVLQSSGLYSLSSTVTVPSSRWPSETFTCNVVHPASNTKVDKPVPKESTCKCISPCPVPESLGGPSVFIFPPKPKDILRITRTPEITCVVLDLGREDPEVQISWFVDGKEVHTAKTQPREQQFNSTYRVVSVLPIEHQDWLTGKEFKCRVNHIGLPSPIERTISKARGQAHQPSVYVLPPSPKELSSSDTVTLTCLIKDFFPPEIDVEWQSNGQPEPESKYHTTAPQLDEDGSYFLYSKLSVDKSRWQQGDTFTCAVMHEALQNHYTDLSLSHSPGK
light chain: B1 light
notes: also called can2H9 VH4 IgGD/VL3
B5: can2H9 ADCC(1059) VH4/VL3 (antibody)
heavy: B1 heavy with P244A, A271D, A303N
light: B1 light
notes: also called can2H9 VH4 IgGB ADCC(1059)/VL3; YZZ1059
B6: can2H9 ADCC mut-1 VH4/VL3 (antibody)
heavy: B1 heavy with A303N
light: B1 light
notes: also called can2H9VH4 IgGB ADCC (mut-1)/VL3; YZZ1057/Mut-1
B7: can2H9 ADCC(1060) VH4/VL3 (antibody)
heavy: B1 heavy with A271D, A303N, A333G
light: B1 light
notes: also called YZZ1060
B8: can2H9 ADCC mut-2 VH4/VL3 (antibody)
heavy: B1 heavy with A271D
light: B1 light
notes: also called can2H9 VH4 IgGB ADCC (mut-2)/VL3; YZZ1058/Mut-2
B9: can2H9 ADCC (1061) VH4/VL3 (antibody)
heavy: B1 heavy with A271D, A303N, P335A
light: B1 light
notes: also called can2H9 VH4 IgGB ADCC (1061)/VL3; YZZ1061

The binders below were run against C1q protein (assay: condition: 2-fold dilutions of antibody starting at 1 µg/mL; C1q at 4 µg/mL; ELISA: antibody captured on PD-1 HIS, C1q added).

binding | Binder
no binding | B1
no binding | B2

These binders were tested against C1q protein (assay: ELISA: antibody titrated on coated PD-1 HIS, then C1q at 4 ug/mL, goat anti-C1q and donkey anti-goat-HRP).

binding | Binder
binds | B3
binds | B5
binds | B6
binds | B7
binds | B8
binds | B9

Binder | binding
B4 | no binding (tested: log(nM) about 0.83 (1 ug/mL))

These binders were tested against C1q protein (assay: ELISA: antibody captured on PD-1 HIS, C1q added).

binding | Binder
binds | B5
binds | B6
binds | B7
binds | B8
binds | B9

Changes are numbered by the printed parent chain. Results are given in words; binding and its absence hold for the method and conditions named. For some assays here: A result given as binding can be weak or reduced; the word gives no strength.
